Assay results published in PMC9378736.
No constants are given. Whether binding was seen depends on the method and setting. In cells and extracts the contact can be indirect. Some results given as binding are weak or reduced against the parent protein; the word gives no strength.

By UniProt entry, the sequences of proteins in these tests, tags left out. Where a name states a change or a piece, a line headed by the entry shows the natural chain unless it says otherwise. Chains listed by the source or under a name are the forms on record and can include a tag or linker.
EZH2-92aa-3×Flag (Q15910, form named): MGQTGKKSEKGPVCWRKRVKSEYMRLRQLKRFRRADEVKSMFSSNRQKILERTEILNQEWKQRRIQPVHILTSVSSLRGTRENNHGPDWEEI
UniProt Q969H0: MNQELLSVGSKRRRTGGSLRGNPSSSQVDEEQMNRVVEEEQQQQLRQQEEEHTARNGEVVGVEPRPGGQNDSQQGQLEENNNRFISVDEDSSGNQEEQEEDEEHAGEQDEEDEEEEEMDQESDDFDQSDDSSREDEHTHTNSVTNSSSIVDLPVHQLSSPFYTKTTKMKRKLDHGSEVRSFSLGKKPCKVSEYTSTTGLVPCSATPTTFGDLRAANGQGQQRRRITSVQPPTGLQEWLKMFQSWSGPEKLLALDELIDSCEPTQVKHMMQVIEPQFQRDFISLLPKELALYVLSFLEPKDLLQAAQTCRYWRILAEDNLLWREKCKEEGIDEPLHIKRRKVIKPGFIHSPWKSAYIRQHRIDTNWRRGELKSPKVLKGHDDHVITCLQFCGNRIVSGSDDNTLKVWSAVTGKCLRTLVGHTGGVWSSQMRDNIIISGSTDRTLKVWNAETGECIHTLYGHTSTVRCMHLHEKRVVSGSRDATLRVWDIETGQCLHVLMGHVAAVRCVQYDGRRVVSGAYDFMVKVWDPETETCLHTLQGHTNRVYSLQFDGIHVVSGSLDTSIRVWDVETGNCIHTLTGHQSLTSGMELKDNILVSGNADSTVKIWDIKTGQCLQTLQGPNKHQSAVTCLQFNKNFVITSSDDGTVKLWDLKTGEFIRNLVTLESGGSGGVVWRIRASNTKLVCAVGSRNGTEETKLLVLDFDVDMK

Target: EZH2-92aa-3×Flag (human) (UniProt Q15910)
Assay: co-IP; 293T cells transfected with EZH2-92aa-3xFlag (legend; the text says MES28 GSCs); lysis in weak RIPA buffer; IP with anti-Flag and with anti-FBXW7 overnight at 4 °C, protein A/G agarose beads; washed five times with PBST; immunoblot with anti-Flag or anti-FBXW7

FBXW7 (from UniProt Q969H0 1-707)
binding: binds
